Laboratory results as given in patent US20110293635A1.
No constants are given. Whether binding was seen depends on the method and setting. Binding seen in cells or lysates may run through a third protein. Some entries that bind do so weakly or less than the wild type.

Amino acid sequences for entries named in this document (tags omitted). A change or cut given only in a name is not applied to a line headed by its entry.
UniProt O60603: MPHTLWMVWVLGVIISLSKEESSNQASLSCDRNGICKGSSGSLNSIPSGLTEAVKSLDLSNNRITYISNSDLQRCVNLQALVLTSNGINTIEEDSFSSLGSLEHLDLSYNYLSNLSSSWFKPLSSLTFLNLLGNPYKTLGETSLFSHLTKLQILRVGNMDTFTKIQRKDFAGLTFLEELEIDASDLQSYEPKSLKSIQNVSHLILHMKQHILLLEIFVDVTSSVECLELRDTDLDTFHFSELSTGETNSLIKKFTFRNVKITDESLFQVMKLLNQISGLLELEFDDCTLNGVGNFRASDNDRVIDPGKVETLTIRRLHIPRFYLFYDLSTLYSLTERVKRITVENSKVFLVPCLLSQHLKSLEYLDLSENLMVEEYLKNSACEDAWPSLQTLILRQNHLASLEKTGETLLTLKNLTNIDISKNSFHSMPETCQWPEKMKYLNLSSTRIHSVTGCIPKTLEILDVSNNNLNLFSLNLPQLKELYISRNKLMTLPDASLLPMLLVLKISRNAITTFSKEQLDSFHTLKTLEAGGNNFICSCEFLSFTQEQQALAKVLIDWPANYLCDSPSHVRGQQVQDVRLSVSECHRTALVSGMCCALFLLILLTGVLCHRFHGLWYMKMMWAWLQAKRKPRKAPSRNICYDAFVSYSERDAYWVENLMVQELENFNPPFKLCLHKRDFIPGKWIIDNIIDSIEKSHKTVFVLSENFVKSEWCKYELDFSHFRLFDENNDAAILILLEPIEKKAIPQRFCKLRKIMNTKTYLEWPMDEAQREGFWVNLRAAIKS
UniProt O00206: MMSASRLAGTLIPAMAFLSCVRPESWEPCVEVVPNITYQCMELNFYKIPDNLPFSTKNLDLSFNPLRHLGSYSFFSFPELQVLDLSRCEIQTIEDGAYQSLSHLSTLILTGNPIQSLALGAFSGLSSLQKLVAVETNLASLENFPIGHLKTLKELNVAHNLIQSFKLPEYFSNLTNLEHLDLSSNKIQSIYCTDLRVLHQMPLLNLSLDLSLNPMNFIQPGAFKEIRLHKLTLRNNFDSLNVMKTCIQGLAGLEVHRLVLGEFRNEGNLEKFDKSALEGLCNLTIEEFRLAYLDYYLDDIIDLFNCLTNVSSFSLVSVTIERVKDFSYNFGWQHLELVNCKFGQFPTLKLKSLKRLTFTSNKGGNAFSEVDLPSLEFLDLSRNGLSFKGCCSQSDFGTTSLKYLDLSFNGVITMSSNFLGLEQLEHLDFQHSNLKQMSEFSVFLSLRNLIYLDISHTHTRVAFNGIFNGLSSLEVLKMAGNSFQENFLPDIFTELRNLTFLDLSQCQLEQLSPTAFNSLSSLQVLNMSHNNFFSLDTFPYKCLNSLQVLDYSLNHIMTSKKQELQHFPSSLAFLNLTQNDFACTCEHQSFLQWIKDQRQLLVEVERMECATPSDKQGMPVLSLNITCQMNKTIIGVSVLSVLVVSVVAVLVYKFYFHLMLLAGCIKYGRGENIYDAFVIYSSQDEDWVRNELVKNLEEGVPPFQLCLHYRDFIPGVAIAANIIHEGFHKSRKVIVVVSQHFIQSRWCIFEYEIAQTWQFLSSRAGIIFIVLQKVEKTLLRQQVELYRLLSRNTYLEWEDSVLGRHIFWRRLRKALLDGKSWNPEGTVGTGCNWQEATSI

Experiments:
Flag tagged TLR2 [1] = biological target: Flag tagged TLR2 (UniProt O60603); test: co-immunoprecipitation (Flag beads) from transfected HEK293 cells, immunoblot for TLR14
Flag tagged TLR4 (human) [2] = biological target: Flag tagged TLR4 (human) (UniProt O00206); test: as above
Flag tagged TLR4 (human) [3] = biological target: Flag tagged TLR4 (human) (UniProt O00206); test: co-immunoprecipitation (Flag beads) from TLR4-transfected HEK293 cells after LPS, immunoblot for TLR14
Flag tagged TLR4 (human) [4] = biological target: Flag tagged TLR4 (human) (UniProt O00206); test: co-immunoprecipitation (Flag beads) from TLR4-transfected HEK293 cells, LPS for 2 hours, immunoblot for TLR14
Flag tagged TLR2 [5] = biological target: Flag tagged TLR2 (UniProt O60603); test: co-immunoprecipitation (Flag beads) from TLR2-transfected HEK293 cells, Pam2Cys4 for 2 hours, immunoblot for TLR14
Flag tagged TLR4 (human) [6] = biological target: Flag tagged TLR4 (human) (UniProt O00206); test: co-immunoprecipitation (Flag beads) from TLR4-transfected HEK293 cells, LPS time course 0 minutes to 24 hours, immunoblot for TLR14

Measured: binding

B1: endogenous Toll-like Receptor 14 (TLR14) (receptor)
chain: VCPERCDCQHPQHLLCTNRGLRVVPKTSSLPSPHDVLTYSLGGNFITNITAFDFHRLGQLRRLDLQYNQIRSLHPKTFEKLSRLEELYLGNNLLQALAPGTLAPLRKLRILYANGNEISRLSRGSFEGLESLVKLRLDGNALGALPDAVFAPLGNLLYLHLESNRIRFLGKNAFAQLGKLRFLNLSANELQPSLRHAATFAPLRSLSSLILSANSLQHLGPRIFQHLPRLGLLSLRGNQLTHLAPEAFWGLEALRELRLEGNRLSQLPTALLEPLHSLEALDLSGNELSALHPATFGHLGRLRELSLRNNALSALSGDIFAASPALYRLDLDGNGWTCDCRLRGLKRWMGDWHSQGRLLTVFVQCRHPPALRGKYLDYLDDQQLQNGSCADPSPSASLTADRRRQPLPTAAGEEMTPPAGLAEELPPQPQLQQQGRFLAGVAWDGAARELVGNRSALRLSRRGPGLQQPSPSVAAAAGPAPQSLDLHKKPQRGRPTRADPALAEPTPTASPGSAPSPAGDPWQRATKHRLGTEHQERAAQSDGGAGLPPLVSDPCDFNKFILCNLTVEAVGADSASVRWAVREHRSPRPLGGARFRLLFDRFGQQPKFHRFVYLPESSDSATLRELRGDTPYLVCVEGVLGGRVCPVAPRDHCAGLVTLPEAGSRGGVDYQLLTLALLTVNALLVLLALAAWASRWLRRKLRARRKGGAPVHVRHMYSTRRPLRSMGTGVSADFSGFQSHRPRTTVCALSEADLIEFPCDRFMDSAGGGAGGSLRREDRLLQRFAD
binds: Flag tagged TLR2 [1] | Flag tagged TLR4 (human) [2] | Flag tagged TLR4 (human) [3] | Flag tagged TLR4 (human) [4] | Flag tagged TLR2 [5] | Flag tagged TLR4 (human) [6]
